Laboratory results taken from publication PMC11148184.
These are yes or no findings as the source states them, for the method shown. Binding seen in cells or lysates may run through a third protein. Some entries that bind do so weakly or less than the wild type. Where a sequence is shown, tags or fusion partners need not be part of it.

Sequences of proteins named here, by UniProt entry; tags and fusion partners are left off.
UniProt Q93009: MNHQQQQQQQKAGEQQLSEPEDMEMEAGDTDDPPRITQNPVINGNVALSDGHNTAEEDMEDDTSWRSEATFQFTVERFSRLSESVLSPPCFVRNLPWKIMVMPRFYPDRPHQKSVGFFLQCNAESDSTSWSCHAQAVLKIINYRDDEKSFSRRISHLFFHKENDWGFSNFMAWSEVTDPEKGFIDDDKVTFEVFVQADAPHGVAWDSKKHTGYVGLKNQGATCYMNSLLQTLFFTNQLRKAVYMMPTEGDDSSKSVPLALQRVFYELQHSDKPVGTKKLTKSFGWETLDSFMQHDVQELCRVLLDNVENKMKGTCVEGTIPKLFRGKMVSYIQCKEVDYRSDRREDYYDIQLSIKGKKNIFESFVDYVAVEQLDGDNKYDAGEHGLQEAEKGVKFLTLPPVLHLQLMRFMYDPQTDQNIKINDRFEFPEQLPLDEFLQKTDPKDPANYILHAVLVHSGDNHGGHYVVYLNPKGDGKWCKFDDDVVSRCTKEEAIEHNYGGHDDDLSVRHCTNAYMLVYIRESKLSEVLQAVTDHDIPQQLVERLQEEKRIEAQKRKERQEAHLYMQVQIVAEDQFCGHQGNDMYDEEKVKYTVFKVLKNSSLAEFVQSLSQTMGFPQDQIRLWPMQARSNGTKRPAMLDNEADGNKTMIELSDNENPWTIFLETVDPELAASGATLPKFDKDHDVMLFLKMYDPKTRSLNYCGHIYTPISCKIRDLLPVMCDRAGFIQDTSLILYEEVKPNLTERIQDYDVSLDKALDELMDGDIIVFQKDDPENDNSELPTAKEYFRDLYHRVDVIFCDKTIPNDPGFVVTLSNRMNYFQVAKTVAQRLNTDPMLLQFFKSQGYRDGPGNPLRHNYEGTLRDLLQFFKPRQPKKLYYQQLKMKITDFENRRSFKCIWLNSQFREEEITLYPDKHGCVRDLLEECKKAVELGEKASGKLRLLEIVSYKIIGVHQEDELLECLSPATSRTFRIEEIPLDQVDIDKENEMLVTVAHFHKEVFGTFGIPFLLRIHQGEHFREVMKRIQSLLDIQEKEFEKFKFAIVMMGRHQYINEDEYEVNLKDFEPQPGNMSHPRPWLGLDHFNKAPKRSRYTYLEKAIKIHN

Target: FLAG-tagged full-length USP7 (UniProt Q93009)
Assay: co-IP; HEK 293 cells with inducible FLAG-USP7 transfected with HA-C16orf72/HAPSTR1; lysates with or without doxycycline induction immunoprecipitated with FLAG antibody; Western blot of HA

B1: HA-tagged C16orf72/HAPSTR1 (protein, UniProt Q14CZ0 1-275)
chain: MEERKEEGEAEIQEHGPEHWFSKWERQCLAEAEQDEQLPPELQEEAAAAAQPEHKQQKLWHLFQNSATAVAQLYKDRVCQQPGLSLWVPFQNAATAVTNLYKESVDTHQRSFDIGIQIGYQRRNKDVLAWVKKRRRTIRREDLISFLCGKVPPPRNSRAPPRLTVVSPNRATSTETSSSVETDLQPFREAIALHGLSGAMASISVRSSTPGSPTHVSSGSNASRRRNGLHDVDLNTFISEEMALHLDNGGTRKRTSAQCGDVITDSPTHKRNRMI
For B1, the binding was “binds”.
